PubChem BioAssay AID1224829 – NIAID | 2016

Purpose: 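Secondary check of hits that alter LPS-induced p65 translocation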 (follow-up of hits)
Cells: mouse RAW264.7 G9 macrophage reporter cells
Knock-down reagent: single siRNA against mouse genes, 100 nM
Time to read-out: 2 days of siRNA knock-down, then 40 min of LPS before fixing
Challenge: LPS (Salmonella minnesota R595) at 10 ng/ml
Measurement: 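Imaging of GFP-p65 after 40 min of LPS; nuclear over perinuclear ring intensity ratio, scaled to plate median and non-targeting control wells, given as z-score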
Direction: p65 translocation z-score and gene median z-score, per vendor: higher = more nuclear NF-kappaB p65 after LPS
Call rule: 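An siRNA is called active when the mean z-score of its two replicates is above 2 or below -2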
Meaning of the calls: active = changed p65 translocation (either direction); inactive = no clear change
This is a random part of about 3,800 reagents tested. 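Calls cover raised and lowered translocation; gene median uses one vendor's three siRNAs; qiagen siRNAs acted more weakly than ambion siRNAs.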 The numbers tell different reagents against one gene apart. No sequences are given here.

| p65 translocation z-score, replicate mean | p65 translocation z-score, replicate 1 | p65 translocation z-score, replicate 2 | gene median z-score, per vendor | outcome | target gene | reagent | siRNA vendor or control pool |
| --- | --- | --- | --- | --- | --- | --- | --- |
| 2.5 | 3.27 | 1.74 | -1.97 | active | Tmem71 | 1 | ambion single siRNA |
| -1.97 | -0.75 | -3.19 | -1.97 | inactive | Tmem71 | 2 | ambion single siRNA |
| -4.08 | -4.32 | -3.84 | -1.97 | active | Tmem71 | 3 | ambion single siRNA |
| 1.83 | 0.954 | 2.71 | 2.65 | inactive | Tmem71 | 4 | qiagen single siRNA |
| 3.85 | 2.59 | 5.1 | 2.65 | active | Tmem71 | 5 | qiagen single siRNA |
| 1.29 | -0.334 | 2.92 | 2.65 | inactive | Tmem71 | 6 | qiagen single siRNA |
| 1.88 | 0.843 | 2.92 | -1.23 | inactive | Rdh16f2 | 1 | ambion single siRNA |
| -2.02 | -1.33 | -2.71 | -1.23 | active | Rdh16f2 | 2 | ambion single siRNA |
| -1.9 | -2.67 | -1.13 | -1.23 | inactive | Rdh16f2 | 3 | ambion single siRNA |
| -2.44 | -2.64 | -2.24 | -2.16 | active | Rdh16f2 | 4 | qiagen single siRNA |
| -2.16 | -2.19 | -2.13 | -2.16 | active | Rdh16f2 | 5 | qiagen single siRNA |
| -0.0559 | -1.13 | 1.01 | -2.16 | inactive | Rdh16f2 | 6 | qiagen single siRNA |
| -2.06 | -2.06 | – | -0.055 | active | Fam91a1 | 1 | ambion single siRNA |
| 1.45 | 1.13 | 1.77 | -0.055 | inactive | Fam91a1 | 2 | ambion single siRNA |
| -1.24 | -1.24 | – | -0.055 | inactive | Fam91a1 | 3 | ambion single siRNA |
| 3.16 | 2.96 | 3.36 | 0.839 | active | Fam91a1 | 4 | qiagen single siRNA |
| 0.839 | 0.302 | 1.38 | 0.839 | inactive | Fam91a1 | 5 | qiagen single siRNA |
| -1.09 | -0.952 | -1.22 | 0.839 | inactive | Fam91a1 | 6 | qiagen single siRNA |
| -6.38 | -7.51 | -5.24 | -4.52 | active | Pura | 1 | ambion single siRNA |
| -4.65 | -5.5 | -3.8 | -4.52 | active | Pura | 2 | ambion single siRNA |
| -1.9 | -2.41 | -1.4 | -4.52 | inactive | Pura | 3 | ambion single siRNA |
| -0.165 | 0.291 | -0.62 | -0.844 | inactive | Pura | 4 | qiagen single siRNA |
| 0.0735 | -1.07 | 1.22 | -0.844 | inactive | Pura | 5 | qiagen single siRNA |
| -3.37 | -3.84 | -2.91 | -0.844 | active | Pura | 6 | qiagen single siRNA |
| – | – | – | -0.591 | inactive | Or13a25 | 1 | ambion single siRNA |
| -1.55 | -1.23 | -1.88 | -0.591 | inactive | Or13a25 | 2 | ambion single siRNA |
| 0.405 | 0.761 | 0.0491 | -0.591 | inactive | Or13a25 | 3 | ambion single siRNA |
| -0.802 | -0.034 | -1.57 | -1.13 | inactive | Or13a25 | 4 | qiagen single siRNA |
| -1.6 | -0.259 | -2.94 | -1.13 | inactive | Or13a25 | 5 | qiagen single siRNA |
| -1.29 | -1.9 | -0.688 | -1.13 | inactive | Or13a25 | 6 | qiagen single siRNA |
| 0.932 | 1.67 | 0.199 | -3.2 | inactive | Raet1b | 1 | ambion single siRNA |
| -3.2 | -2.19 | -4.2 | -3.2 | active | Raet1b | 2 | ambion single siRNA |
| -5.27 | -4.95 | -5.6 | -3.2 | active | Raet1b | 3 | ambion single siRNA |
| -0.0328 | 0.15 | -0.216 | 0.808 | inactive | Raet1b | 4 | qiagen single siRNA |
| 5.07 | 4.47 | 5.67 | 0.808 | active | Raet1b | 5 | qiagen single siRNA |
| 0.405 | -0.656 | 1.47 | 0.808 | inactive | Raet1b | 6 | qiagen single siRNA |
| -0.757 | 0.495 | -2.01 | -1.77 | inactive | Serpina1b | 1 | ambion single siRNA |
| -0.767 | 0.0376 | -1.57 | -1.77 | inactive | Serpina1b | 2 | ambion single siRNA |
| -2.44 | -2.91 | -1.96 | -1.77 | active | Serpina1b | 3 | ambion single siRNA |
| 0.122 | 0.122 | – | 1.5 | inactive | Serpina1b | 4 | qiagen single siRNA |
| 2.98 | 0.805 | 5.15 | 1.5 | active | Serpina1b | 5 | qiagen single siRNA |
| 2.2 | 2.2 | – | 1.5 | active | Serpina1b | 6 | qiagen single siRNA |
| -2.63 | -3.37 | -1.89 | -2.08 | active | E130006D01Rik | 1 | ambion single siRNA |
| -3.34 | -4.41 | -2.26 | -2.08 | active | E130006D01Rik | 2 | ambion single siRNA |
| 0.216 | -0.102 | 0.535 | -2.08 | inactive | E130006D01Rik | 3 | ambion single siRNA |
| 1.33 | 0.422 | 2.24 | -0.881 | inactive | E130006D01Rik | 4 | qiagen single siRNA |
| -3.63 | -2.47 | -4.78 | -0.881 | active | E130006D01Rik | 5 | qiagen single siRNA |
| -0.881 | -1.09 | -0.676 | -0.881 | inactive | E130006D01Rik | 6 | qiagen single siRNA |
| -0.17 | 0.38 | -0.721 | -0.17 | inactive | Stradb | 1 | ambion single siRNA |
| 1.11 | 1.23 | 0.997 | -0.17 | inactive | Stradb | 2 | ambion single siRNA |
| -1.82 | -2.55 | -1.1 | -0.17 | inactive | Stradb | 3 | ambion single siRNA |
| -0.117 | 0.143 | -0.378 | 0.382 | inactive | Stradb | 4 | qiagen single siRNA |
| 0.626 | 1.24 | 0.0149 | 0.382 | inactive | Stradb | 5 | qiagen single siRNA |
| 0.727 | 0.834 | 0.62 | 0.382 | inactive | Stradb | 6 | qiagen single siRNA |
